Data from the supplement of paper PMC10849652.
Some of the results follow.

Protein sequences, listed by entry. Tags and fused reporters are not part of them. Lines headed by an entry give the natural chain unless they say otherwise; changes in a name come on top.
UniProt Q9HAU5: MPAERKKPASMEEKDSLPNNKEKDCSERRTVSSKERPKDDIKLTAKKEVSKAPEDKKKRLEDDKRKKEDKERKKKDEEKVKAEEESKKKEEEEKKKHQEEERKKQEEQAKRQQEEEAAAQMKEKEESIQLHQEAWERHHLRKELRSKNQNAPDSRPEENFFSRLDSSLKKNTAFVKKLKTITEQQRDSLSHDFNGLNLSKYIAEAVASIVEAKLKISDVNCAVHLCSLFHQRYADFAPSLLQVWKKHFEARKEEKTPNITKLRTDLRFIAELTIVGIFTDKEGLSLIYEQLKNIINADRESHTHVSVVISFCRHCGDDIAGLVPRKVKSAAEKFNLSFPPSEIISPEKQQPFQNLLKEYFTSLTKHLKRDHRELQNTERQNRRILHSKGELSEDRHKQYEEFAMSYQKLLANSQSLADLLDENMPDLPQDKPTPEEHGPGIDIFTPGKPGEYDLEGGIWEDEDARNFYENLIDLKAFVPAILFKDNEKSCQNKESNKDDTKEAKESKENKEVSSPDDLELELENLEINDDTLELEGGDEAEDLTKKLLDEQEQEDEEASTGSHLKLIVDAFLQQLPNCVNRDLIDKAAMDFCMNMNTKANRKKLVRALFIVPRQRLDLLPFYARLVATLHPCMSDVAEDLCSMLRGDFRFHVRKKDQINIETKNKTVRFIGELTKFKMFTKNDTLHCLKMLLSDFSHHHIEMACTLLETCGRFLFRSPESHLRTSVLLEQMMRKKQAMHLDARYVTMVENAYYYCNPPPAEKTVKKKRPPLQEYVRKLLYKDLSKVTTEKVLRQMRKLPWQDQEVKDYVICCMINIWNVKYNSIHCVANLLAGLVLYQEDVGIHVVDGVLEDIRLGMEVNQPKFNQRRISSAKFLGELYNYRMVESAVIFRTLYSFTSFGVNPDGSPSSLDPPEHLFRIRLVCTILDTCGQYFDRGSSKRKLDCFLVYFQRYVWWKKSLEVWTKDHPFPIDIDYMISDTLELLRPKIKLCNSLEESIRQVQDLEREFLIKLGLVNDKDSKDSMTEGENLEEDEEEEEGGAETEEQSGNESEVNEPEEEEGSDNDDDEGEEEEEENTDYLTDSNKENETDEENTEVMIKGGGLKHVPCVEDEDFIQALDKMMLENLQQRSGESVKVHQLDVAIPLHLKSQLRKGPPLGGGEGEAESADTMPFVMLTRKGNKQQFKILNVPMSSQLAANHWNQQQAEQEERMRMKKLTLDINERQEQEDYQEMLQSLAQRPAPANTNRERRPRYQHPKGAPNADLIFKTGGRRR
UniProt Q9Y5T5, whole entry, looked up: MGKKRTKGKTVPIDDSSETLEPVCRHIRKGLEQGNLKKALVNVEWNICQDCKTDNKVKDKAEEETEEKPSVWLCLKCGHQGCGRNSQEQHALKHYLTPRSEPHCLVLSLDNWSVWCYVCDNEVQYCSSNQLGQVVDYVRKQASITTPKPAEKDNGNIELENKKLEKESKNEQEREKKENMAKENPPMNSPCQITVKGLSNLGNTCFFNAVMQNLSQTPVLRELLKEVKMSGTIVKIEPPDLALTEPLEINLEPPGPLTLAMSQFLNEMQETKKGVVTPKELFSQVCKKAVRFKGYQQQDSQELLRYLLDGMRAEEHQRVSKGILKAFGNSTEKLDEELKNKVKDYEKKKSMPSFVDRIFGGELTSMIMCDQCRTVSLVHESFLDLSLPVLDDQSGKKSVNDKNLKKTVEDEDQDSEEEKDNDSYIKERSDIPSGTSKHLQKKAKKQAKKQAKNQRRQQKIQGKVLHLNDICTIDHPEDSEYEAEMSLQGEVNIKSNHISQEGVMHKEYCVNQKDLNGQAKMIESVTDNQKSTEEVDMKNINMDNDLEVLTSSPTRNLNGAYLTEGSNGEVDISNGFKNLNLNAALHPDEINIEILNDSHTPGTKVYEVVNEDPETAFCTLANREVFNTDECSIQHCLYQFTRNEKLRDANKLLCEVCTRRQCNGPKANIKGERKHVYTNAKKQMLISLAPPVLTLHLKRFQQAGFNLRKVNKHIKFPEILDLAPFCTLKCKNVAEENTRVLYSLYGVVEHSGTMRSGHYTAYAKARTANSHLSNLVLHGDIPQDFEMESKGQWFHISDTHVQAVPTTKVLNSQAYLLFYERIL
UniProt P63027, whole entry, looked up: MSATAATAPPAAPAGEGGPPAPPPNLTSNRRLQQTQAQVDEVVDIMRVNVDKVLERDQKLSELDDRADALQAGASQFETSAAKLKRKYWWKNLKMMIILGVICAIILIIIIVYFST
UniProt P15498: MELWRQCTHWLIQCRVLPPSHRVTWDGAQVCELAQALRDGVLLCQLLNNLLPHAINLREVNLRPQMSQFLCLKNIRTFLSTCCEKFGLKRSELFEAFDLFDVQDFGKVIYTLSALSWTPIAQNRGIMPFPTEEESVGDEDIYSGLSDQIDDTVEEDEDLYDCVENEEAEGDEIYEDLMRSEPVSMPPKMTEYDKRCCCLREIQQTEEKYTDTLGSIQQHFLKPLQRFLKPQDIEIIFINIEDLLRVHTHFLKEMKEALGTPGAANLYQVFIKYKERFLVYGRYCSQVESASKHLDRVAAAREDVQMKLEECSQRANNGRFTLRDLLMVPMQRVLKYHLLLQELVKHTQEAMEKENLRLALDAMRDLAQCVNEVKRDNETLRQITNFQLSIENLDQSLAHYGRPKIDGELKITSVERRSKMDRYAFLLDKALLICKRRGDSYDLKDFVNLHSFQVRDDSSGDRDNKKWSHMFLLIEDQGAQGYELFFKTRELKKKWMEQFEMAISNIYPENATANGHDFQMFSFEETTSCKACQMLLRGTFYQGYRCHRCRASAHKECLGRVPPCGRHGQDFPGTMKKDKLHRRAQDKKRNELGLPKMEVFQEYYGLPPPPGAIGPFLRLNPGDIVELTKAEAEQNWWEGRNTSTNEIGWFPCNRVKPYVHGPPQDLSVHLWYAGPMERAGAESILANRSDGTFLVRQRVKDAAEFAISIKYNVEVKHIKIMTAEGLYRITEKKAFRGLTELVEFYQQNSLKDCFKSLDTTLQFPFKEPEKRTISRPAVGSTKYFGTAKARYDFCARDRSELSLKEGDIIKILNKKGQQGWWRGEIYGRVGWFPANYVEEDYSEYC
UniProt P51809, whole entry, looked up: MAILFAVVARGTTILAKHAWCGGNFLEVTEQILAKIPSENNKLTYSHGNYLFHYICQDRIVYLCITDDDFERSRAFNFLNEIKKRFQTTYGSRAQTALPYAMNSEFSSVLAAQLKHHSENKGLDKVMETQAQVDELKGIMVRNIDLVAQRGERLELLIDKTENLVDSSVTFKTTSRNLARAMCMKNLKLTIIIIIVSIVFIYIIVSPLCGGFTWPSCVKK
UniProt O95292, whole entry, looked up: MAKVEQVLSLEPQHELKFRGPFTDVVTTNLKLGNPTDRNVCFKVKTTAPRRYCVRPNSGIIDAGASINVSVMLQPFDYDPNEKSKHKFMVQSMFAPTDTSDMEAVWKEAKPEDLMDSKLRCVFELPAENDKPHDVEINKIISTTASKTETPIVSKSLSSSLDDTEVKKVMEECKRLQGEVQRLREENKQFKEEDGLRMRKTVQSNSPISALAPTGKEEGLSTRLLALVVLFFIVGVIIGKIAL
UniProt P22695: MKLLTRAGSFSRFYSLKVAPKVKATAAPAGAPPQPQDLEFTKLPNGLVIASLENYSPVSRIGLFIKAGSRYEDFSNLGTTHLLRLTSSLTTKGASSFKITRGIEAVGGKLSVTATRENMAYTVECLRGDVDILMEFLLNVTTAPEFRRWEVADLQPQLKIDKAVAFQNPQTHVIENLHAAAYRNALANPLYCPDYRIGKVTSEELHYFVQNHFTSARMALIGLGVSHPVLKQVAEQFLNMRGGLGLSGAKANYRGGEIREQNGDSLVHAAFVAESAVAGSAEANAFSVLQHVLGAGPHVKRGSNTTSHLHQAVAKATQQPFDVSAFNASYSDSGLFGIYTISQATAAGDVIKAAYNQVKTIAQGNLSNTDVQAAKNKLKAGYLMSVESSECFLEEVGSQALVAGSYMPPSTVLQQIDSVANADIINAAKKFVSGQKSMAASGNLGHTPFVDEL
UniProt Q9P0L0: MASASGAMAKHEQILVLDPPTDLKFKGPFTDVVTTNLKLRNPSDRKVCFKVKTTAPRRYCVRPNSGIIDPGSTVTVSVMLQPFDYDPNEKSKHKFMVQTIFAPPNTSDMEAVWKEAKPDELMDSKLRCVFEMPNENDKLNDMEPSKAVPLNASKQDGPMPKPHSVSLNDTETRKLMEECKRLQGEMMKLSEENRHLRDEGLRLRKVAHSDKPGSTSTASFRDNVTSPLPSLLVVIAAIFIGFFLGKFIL
UniProt Q16851: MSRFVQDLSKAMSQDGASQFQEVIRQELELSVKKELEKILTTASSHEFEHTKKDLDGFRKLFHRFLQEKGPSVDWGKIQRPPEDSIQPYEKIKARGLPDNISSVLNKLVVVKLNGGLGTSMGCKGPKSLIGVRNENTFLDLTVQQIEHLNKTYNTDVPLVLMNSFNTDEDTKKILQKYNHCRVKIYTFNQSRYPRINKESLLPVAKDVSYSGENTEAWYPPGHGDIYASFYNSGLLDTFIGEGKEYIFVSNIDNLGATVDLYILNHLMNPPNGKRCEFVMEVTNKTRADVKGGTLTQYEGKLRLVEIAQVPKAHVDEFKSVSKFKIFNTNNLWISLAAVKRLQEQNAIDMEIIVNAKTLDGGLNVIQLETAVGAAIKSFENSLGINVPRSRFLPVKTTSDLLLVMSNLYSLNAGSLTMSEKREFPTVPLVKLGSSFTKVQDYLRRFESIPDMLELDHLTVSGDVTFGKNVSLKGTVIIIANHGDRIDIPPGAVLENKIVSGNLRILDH
UniProt Q9BZM6: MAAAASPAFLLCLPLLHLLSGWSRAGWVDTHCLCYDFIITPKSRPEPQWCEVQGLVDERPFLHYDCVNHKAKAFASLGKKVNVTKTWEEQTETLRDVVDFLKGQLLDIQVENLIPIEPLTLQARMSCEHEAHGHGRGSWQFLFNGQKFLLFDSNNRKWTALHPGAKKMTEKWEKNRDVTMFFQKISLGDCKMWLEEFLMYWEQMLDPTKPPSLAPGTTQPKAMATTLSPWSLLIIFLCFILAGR
UniProt P54578: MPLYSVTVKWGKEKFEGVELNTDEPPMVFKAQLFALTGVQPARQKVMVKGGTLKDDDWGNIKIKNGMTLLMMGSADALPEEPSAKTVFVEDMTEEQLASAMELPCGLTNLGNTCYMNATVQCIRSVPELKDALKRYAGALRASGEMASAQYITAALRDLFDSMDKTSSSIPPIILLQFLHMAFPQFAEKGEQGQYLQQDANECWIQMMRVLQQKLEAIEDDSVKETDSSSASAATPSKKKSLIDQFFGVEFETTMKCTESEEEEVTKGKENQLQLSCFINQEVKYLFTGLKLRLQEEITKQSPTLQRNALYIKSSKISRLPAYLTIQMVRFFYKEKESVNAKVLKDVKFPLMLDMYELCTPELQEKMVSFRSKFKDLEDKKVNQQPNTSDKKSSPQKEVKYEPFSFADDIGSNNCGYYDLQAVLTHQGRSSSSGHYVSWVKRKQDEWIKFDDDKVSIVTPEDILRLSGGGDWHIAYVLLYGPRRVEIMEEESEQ
UniProt Q9NWZ5: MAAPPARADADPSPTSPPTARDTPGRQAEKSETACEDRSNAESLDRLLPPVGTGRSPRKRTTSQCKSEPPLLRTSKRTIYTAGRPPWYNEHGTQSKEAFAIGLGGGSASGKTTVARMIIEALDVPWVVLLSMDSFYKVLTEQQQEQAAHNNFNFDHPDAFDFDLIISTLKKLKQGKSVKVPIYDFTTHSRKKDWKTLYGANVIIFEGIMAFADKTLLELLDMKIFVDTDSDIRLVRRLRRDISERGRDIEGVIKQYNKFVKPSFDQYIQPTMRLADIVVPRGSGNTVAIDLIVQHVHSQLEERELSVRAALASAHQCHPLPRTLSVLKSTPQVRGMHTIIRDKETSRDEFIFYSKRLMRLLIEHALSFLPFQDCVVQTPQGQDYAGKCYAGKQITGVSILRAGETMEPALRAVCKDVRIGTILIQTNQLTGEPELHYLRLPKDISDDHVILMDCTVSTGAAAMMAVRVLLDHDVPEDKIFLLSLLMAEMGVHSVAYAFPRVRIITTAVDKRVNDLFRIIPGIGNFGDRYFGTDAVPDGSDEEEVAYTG

Legend:
Test in all cases: log2 fold change, soluble protein after heating vs DMSO (PISA); higher = thermal stabilisation; K562 lysate, 10 uM; active = over 0.2 and 3.5 SD of the protein, either way, in both replicates (recomputed)
vemurafenib = compound: CCCS(=O)(=O)Nc1ccc(F)c(C(=O)c2c[nH]c3ncc(-c4ccc(Cl)cc4)cc23)c1F [vemurafenib]
Outline: (§1)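 K562 pellets were dounce-homogenised in PBS pH 7.4 containing 1 mM MgCl2, and the crude extract, at 1 mg/mL protein, was exposed to 10 μM compound for 30 min. Aliquots were heated for 3 min across 48°C-58°C, pooled, brought to 0.5% NP-40 at 4°C and spun at 21,000xg for 90 min, with the supernatant taken as soluble protein. TMTpro 16plex LC-MS/MS with equalised channel sums quantified that protein. Values are log-two fold changes in thermal stability relative to solvent controls, taken from duplicates.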

[1] = compound: CCCS(=O)(=O)Nc1ccc(F)c(C(=O)c2c[nH]c3ncc(Cl)cc23)c1F
Outline: as §1

barasertib = compound: CCN(CCCOc1ccc2c(Nc3cc(CC(=O)Nc4cccc(F)c4)[nH]n3)ncnc2c1)CCOP(=O)(O)O [barasertib]
Outline: as §1

[2] = compound: CC[C@@H]1C(=O)N(C)c2cnc(Nc3ccc(C(=O)NC4CCN(C)CC4)cc3OC)nc2N1C1CCCC1
Outline: as §1

volasertib = compound: CC[C@@H]1C(=O)N(C)c2cnc(Nc3ccc(C(=O)N[C@H]4CC[C@H](N5CCN(CC6CC6)CC5)CC4)cc3OC)nc2N1C(C)C [volasertib]
Outline: as §1

[3] = compound: CCn1c(C(=O)N(C2CC2)C2CC2)cc2c3c(ncn3C)c(Nc3cc(C)n(C)n3)nc21
Outline: as §1

[4] = compound: CCn1cc(-c2ccnc3[nH]c(-c4cccc(CN(C)C)c4)cc23)c(-c2ccc(NC(=O)N(C)C)cc2)n1
Outline: as §1

[5] = compound: CN1CCC(CNc2ccc3ncc(-c4cccc(OC(F)(F)F)c4)n3n2)CC1
Outline: as §1

saracatinib = compound: CN1CCN(CCOc2cc(OC3CCOCC3)c3c(Nc4c(Cl)ccc5c4OCO5)ncnc3c2)CC1 [saracatinib]
Outline: as §1

sotrastaurin = compound: CN1CCN(c2nc(C3=C(c4c[nH]c5ccccc45)C(=O)NC3=O)c3ccccc3n2)CC1 [sotrastaurin]
Outline: as §1

alvocidib = compound: CN1CC[C@H](c2c(O)cc(O)c3c(=O)cc(-c4ccccc4Cl)oc23)[C@H](O)C1 [alvocidib]
Outline: as §1

Tubastatin A = compound: CN1CCc2c(c3ccccc3n2Cc2ccc(C(=O)NO)cc2)C1 [Tubastatin A]
Outline: as §1

[6] = compound: CNC(=O)C1=CC=CC=C1NC2=NC(=NC=C2Cl)NC3=C(C=C(C=C3)N4CCOCC4)OC
Outline: as §1

defactinib = compound: CNC(=O)c1ccc(Nc2ncc(C(F)(F)F)c(NCc3nccnc3N(C)S(C)(=O)=O)n2)cc1 [defactinib]
Outline: as §1

[7] = compound: CNc1nc(-c2ccc3c(N)n[nH]c3c2)cc(N2C[C@@H](C(=O)NC3CCCCC3)CC[C@H]2C)n1
Outline: as §1

encorafenib = compound: COC(=O)N[C@@H](C)CNc1nccc(-c2cn(C(C)C)nc2-c2cc(Cl)cc(NS(C)(=O)=O)c2F)n1 [encorafenib]
Outline: as §1

[8] = compound: COC(=O)[C@H](CCSC)NC(=O)C1=C(C=C(C=C1)NC[C@H](CS)N)C2=CC=CC=C2
Outline: as §1

alisertib = compound: COc1cc(Nc2ncc3c(n2)-c2ccc(Cl)cc2C(c2c(F)cccc2OC)=NC3)ccc1C(=O)O [alisertib]
Outline: as §1

[9] = compound: COc1cc2nc(-c3cc(F)ccc3O)nc(N[C@@H]3CNC[C@H]3C(C)(C)O)c2cc1OC
Outline: as §1

gefitinib = compound: COc1cc2ncnc(Nc3ccc(F)c(Cl)c3)c2cc1OCCCN1CCOCC1 [gefitinib]
Outline: as §1

Measured: log2 fold change

UPF2 (UniProt Q9HAU5)
inactive: vemurafenib 0.003 | [1] 0.01 | barasertib 0.009 | [2] -0.033 | volasertib -0.026 | [3] 0.015 | [4] -0.037 | [5] -0.001 | saracatinib 0.001 | sotrastaurin 0.003 | alvocidib -0.008 | Tubastatin A -0.04 | [6] 0.024 | defactinib -0.007 | [7] -0.035 | encorafenib -0.014 | [8] 0.005 | alisertib 0.034 | [9] -0.023 | gefitinib -0.004

USP16 (UniProt Q9Y5T5)
inactive: vemurafenib 0.038 | [1] 0.005 | barasertib 0.016 | [2] -0.009 | volasertib -0.011 | [3] 0.01 | [4] 0.039 | [5] -0.045 | saracatinib 0.054 | sotrastaurin 0.013 | alvocidib 0.004 | Tubastatin A -0.118 | [6] -0.011 | defactinib 0.035 | [7] 0.008 | encorafenib 0.059 | [8] 0.081 | alisertib -0.011 | [9] -0.003 | gefitinib -0.013

VAMP2 (UniProt P63027)
active: [2] -0.286
inactive: vemurafenib 0.002 | [1] -0.027 | barasertib 0.012 | volasertib 0.009 | [3] 0.02 | [4] 0.057 | [5] 0.091 | saracatinib 0.033 | sotrastaurin -0.028 | alvocidib 0.019 | Tubastatin A 0.027 | [6] 0.035 | defactinib 0.112 | [7] -0.01 | encorafenib 0.05 | [8] -0.057 | alisertib 0.014 | [9] 0.001 | gefitinib 0.018

VAV1 (UniProt P15498)
inactive: vemurafenib 0.032 | [1] -0.017 | barasertib 0.022 | [2] -0.041 | volasertib -0.002 | [3] -0.041 | [4] -0.114 | [5] 0.035 | saracatinib -0.011 | sotrastaurin -0.021 | alvocidib 0.005 | Tubastatin A -0.117 | [6] -0.028 | defactinib 0.018 | [7] 0.007 | encorafenib -0.026 | [8] 0.025 | alisertib -0.006 | [9] -0.044 | gefitinib 0.024

VAMP7 (UniProt P51809)
inactive: vemurafenib 0.023 | [1] 0.01 | barasertib 0.004 | [2] -0.004 | volasertib -0.02 | [3] -0.037 | [4] -0.025 | [5] 0.054 | saracatinib -0.031 | sotrastaurin 0.028 | alvocidib -0.042 | Tubastatin A 0.047 | [6] -0.028 | defactinib 0 | [7] -0.065 | encorafenib -0.007 | [8] -0.072 | alisertib -0.024 | [9] 0.024 | gefitinib 0.003

VAPB (UniProt O95292)
inactive: vemurafenib -0.009 | [1] -0.006 | barasertib -0.025 | [2] 0.058 | volasertib 0.013 | [3] 0.037 | [4] -0.071 | [5] 0.047 | saracatinib 0.02 | sotrastaurin 0.025 | alvocidib -0.018 | Tubastatin A 0.015 | [6] -0.01 | defactinib -0.014 | [7] -0.015 | encorafenib 0.046 | [8] -0.18 | alisertib 0.003 | [9] 0.008 | gefitinib 0.003

UQCRC2 (UniProt P22695)
inactive: vemurafenib -0.016 | [1] 0.01 | barasertib -0.018 | [2] 0.026 | volasertib 0.01 | [3] -0.015 | [4] 0.034 | [5] -0.003 | saracatinib 0.002 | sotrastaurin -0.02 | alvocidib -0.005 | Tubastatin A 0.035 | [6] -0.013 | defactinib 0.014 | [7] 0.01 | encorafenib -0.001 | [8] -0.013 | alisertib 0.022 | [9] 0.024 | gefitinib -0.013

Fetched one by one from the entries so far (two):
UPF2 (UniProt Q9HAU5)
inactive: vemurafenib 0.003 | [1] 0.01 | barasertib 0.009 | [2] -0.033 | volasertib -0.026 | [3] 0.015 | [4] -0.037 | [5] -0.001 | saracatinib 0.001 | sotrastaurin 0.003 | alvocidib -0.008 | Tubastatin A -0.04 | [6] 0.024 | defactinib -0.007 | [7] -0.035 | encorafenib -0.014 | [8] 0.005 | alisertib 0.034 | [9] -0.023 | gefitinib -0.004

VAV1 (UniProt P15498)
inactive: vemurafenib 0.032 | [1] -0.017 | barasertib 0.022 | [2] -0.041 | volasertib -0.002 | [3] -0.041 | [4] -0.114 | [5] 0.035 | saracatinib -0.011 | sotrastaurin -0.021 | alvocidib 0.005 | Tubastatin A -0.117 | [6] -0.028 | defactinib 0.018 | [7] 0.007 | encorafenib -0.026 | [8] 0.025 | alisertib -0.006 | [9] -0.044 | gefitinib 0.024

(continued)

VAPA (UniProt Q9P0L0)
inactive: vemurafenib -0.009 | [1] -0.054 | barasertib 0.018 | [2] 0.022 | volasertib -0.005 | [3] 0.071 | [4] 0.188 | [5] -0.208 | saracatinib -0.033 | sotrastaurin 0.017 | alvocidib 0.068 | Tubastatin A 0.028 | [6] -0.048 | defactinib 0.021 | [7] -0.087 | encorafenib -0.022 | [8] -0.228 | alisertib -0.07 | [9] -0.005 | gefitinib -0.025

UGP2 (UniProt Q16851)
inactive: vemurafenib -0.014 | [1] -0.008 | barasertib -0.018 | [2] 0.012 | volasertib 0.016 | [3] -0.018 | [4] -0.017 | [5] 0.016 | saracatinib 0.012 | sotrastaurin -0.007 | alvocidib 0.027 | Tubastatin A 0.034 | [6] 0.009 | defactinib -0.004 | [7] 0.043 | encorafenib -0.013 | [8] -0.009 | alisertib 0.014 | [9] 0.009 | gefitinib 0.002

UTP4 (UniProt Q969X6)
inactive: vemurafenib 0.024 | [1] 0.027 | barasertib -0.038 | [2] 0.071 | volasertib -0.003 | [3] 0.023 | [4] -0.026 | [5] 0.016 | saracatinib 0.061 | sotrastaurin 0.025 | alvocidib -0.015 | Tubastatin A 0.002 | [6] 0.012 | defactinib 0.01 | [7] -0.002 | encorafenib 0.085 | [8] 0 | alisertib 0.034 | [9] -0.005 | gefitinib -0.029

USP9X (UniProt Q93008)
inactive: vemurafenib -0.013 | [1] 0.014 | barasertib 0.038 | [2] -0.065 | volasertib -0.053 | [3] 0.033 | [4] -0.042 | [5] -0.036 | saracatinib 0.03 | sotrastaurin 0.007 | alvocidib -0.009 | Tubastatin A -0.114 | [6] 0.016 | defactinib 0.026 | [7] -0.04 | encorafenib 0.007 | [8] 0.023 | alisertib 0.016 | [9] 0.013 | gefitinib 0.002

ULBP1 (UniProt Q9BZM6)
inactive: vemurafenib 0.022 | [1] 0.042 | barasertib -0.009 | [2] 0.063 | volasertib -0.027 | [3] -0.049 | [4] -0.002 | [5] 0.026 | saracatinib -0.011 | sotrastaurin -0.054 | alvocidib -0.045 | Tubastatin A 0.004 | [6] 0.04 | defactinib -0.052 | [7] 0.088 | encorafenib 0.033 | [8] -0.02 | alisertib 0.049 | [9] 0.012 | gefitinib -0.046

USP14 (UniProt P54578)
inactive: vemurafenib 0.017 | [1] 0.003 | barasertib -0.005 | [2] 0.008 | volasertib -0.015 | [3] 0.002 | [4] 0.102 | [5] -0.03 | saracatinib -0.004 | sotrastaurin -0.018 | alvocidib 0.024 | Tubastatin A 0.014 | [6] -0.002 | defactinib -0.014 | [7] 0.027 | encorafenib -0.01 | [8] 0.056 | alisertib 0.013 | [9] -0.007 | gefitinib 0.004

UHRF1BP1L (UniProt A0JNW5)
inactive: vemurafenib 0.006 | [1] 0.027 | barasertib 0.028 | [2] 0.081 | volasertib -0.018 | [3] -0.021 | [4] -0.08 | [5] -0.002 | saracatinib -0.001 | sotrastaurin 0 | alvocidib -0.009 | Tubastatin A -0.028 | [6] 0.016 | defactinib 0.009 | [7] 0.015 | encorafenib 0.091 | [8] -0.054 | alisertib 0.012 | [9] 0.041 | gefitinib 0.025

UCKL1 (UniProt Q9NWZ5)
inactive: vemurafenib 0.005 | [1] -0.055 | barasertib 0.016 | [2] -0.028 | volasertib 0.003 | [3] 0.03 | [4] -0.064 | [5] 0.058 | saracatinib 0.045 | sotrastaurin 0.026 | alvocidib 0.059 | Tubastatin A -0.159 | [6] -0.015 | defactinib 0.018 | [7] -0.025 | encorafenib 0.004 | [8] 0.054 | alisertib 0.058 | [9] -0.015 | gefitinib -0.031

VIRMA (UniProt Q69YN4)
inactive: vemurafenib 0.058 | [1] 0.007 | barasertib 0.082 | [2] -0.005 | volasertib -0.039 | [3] 0.036 | [4] -0.104 | [5] -0.08 | saracatinib -0.016 | sotrastaurin -0.024 | alvocidib 0.021 | Tubastatin A -0.094 | [6] 0.005 | defactinib 0.023 | [7] -0.031 | encorafenib 0 | [8] -0.009 | alisertib 0.014 | [9] 0.066 | gefitinib -0.068
